Results from PMC5775731.
No constants are given. Whether binding was seen depends on the method and setting. In cells and extracts the contact can be indirect. Some results given as binding are weak or reduced against the parent protein; the word gives no strength.

Protein sequences, listed by entry. Tags and fused reporters are not part of them.
UniProt P29351: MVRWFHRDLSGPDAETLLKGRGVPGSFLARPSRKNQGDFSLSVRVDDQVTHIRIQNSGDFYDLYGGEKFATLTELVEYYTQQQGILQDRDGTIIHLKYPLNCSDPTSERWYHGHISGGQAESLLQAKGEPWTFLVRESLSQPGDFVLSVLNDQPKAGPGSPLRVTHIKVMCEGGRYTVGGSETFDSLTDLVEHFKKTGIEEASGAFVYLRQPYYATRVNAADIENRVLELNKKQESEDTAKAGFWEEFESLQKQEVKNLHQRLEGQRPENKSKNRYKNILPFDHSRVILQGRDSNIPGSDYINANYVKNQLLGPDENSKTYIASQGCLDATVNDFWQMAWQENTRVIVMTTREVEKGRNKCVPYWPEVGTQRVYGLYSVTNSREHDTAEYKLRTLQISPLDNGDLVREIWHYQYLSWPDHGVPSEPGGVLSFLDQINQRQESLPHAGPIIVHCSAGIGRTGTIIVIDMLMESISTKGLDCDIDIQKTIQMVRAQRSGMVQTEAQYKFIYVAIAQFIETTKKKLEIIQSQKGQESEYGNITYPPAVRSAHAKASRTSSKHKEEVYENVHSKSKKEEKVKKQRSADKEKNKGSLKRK

Target: T1, siglec-E (mouse (endogenous in BMDM)) (UniProt Q91Y57)
T1 sequence (chain, constitutively tyrosine-phosphorylated (sites not stated)): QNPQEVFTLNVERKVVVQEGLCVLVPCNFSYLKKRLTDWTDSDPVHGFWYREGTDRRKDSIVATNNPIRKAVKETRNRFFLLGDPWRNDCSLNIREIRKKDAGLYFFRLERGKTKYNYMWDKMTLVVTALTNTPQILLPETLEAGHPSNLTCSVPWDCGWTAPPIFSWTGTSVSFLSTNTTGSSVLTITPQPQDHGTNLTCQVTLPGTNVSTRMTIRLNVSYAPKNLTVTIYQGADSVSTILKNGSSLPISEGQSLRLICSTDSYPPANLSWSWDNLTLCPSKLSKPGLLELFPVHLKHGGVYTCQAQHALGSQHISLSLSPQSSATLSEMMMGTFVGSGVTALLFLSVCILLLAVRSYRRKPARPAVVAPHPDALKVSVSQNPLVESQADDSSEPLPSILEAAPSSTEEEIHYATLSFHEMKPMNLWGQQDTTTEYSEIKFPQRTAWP
Assay: co-IP; lysate of WT (and KO2 control) BMDM primed with 1 ng/ml LPS for 3 days; lysis in 50 mM Tris-HCl, 150 mM NaCl, 1% NP-40 with protease and phosphatase inhibitors; IP with sheep anti-siglec-E Ab, immunoblot for phosphotyrosine, SHP-1 and siglec-E

- binding: binds
Substance: protein tyrosine phosphatase SHP-1 (from UniProt P29351 1-595) (enzyme)
